The record followed here is article PMC5405935, “Role of Kif15 and its novel mitotic partner KBP in K-fiber dynamics and chromosome alignment” (PLoS ONE, 2017).

These are yes or no findings as the source states them, for the method shown. In cells and extracts the contact can be indirect. Here binding means that the protein was enriched with, or labelled near, the bait; the list need not be complete. Where a sequence is shown, tags or fusion partners need not be part of it.

The assay addresses T1, Flag-tagged Kif15 (full length, residues 1-1388) (human), Q9NS87.
T1 chain: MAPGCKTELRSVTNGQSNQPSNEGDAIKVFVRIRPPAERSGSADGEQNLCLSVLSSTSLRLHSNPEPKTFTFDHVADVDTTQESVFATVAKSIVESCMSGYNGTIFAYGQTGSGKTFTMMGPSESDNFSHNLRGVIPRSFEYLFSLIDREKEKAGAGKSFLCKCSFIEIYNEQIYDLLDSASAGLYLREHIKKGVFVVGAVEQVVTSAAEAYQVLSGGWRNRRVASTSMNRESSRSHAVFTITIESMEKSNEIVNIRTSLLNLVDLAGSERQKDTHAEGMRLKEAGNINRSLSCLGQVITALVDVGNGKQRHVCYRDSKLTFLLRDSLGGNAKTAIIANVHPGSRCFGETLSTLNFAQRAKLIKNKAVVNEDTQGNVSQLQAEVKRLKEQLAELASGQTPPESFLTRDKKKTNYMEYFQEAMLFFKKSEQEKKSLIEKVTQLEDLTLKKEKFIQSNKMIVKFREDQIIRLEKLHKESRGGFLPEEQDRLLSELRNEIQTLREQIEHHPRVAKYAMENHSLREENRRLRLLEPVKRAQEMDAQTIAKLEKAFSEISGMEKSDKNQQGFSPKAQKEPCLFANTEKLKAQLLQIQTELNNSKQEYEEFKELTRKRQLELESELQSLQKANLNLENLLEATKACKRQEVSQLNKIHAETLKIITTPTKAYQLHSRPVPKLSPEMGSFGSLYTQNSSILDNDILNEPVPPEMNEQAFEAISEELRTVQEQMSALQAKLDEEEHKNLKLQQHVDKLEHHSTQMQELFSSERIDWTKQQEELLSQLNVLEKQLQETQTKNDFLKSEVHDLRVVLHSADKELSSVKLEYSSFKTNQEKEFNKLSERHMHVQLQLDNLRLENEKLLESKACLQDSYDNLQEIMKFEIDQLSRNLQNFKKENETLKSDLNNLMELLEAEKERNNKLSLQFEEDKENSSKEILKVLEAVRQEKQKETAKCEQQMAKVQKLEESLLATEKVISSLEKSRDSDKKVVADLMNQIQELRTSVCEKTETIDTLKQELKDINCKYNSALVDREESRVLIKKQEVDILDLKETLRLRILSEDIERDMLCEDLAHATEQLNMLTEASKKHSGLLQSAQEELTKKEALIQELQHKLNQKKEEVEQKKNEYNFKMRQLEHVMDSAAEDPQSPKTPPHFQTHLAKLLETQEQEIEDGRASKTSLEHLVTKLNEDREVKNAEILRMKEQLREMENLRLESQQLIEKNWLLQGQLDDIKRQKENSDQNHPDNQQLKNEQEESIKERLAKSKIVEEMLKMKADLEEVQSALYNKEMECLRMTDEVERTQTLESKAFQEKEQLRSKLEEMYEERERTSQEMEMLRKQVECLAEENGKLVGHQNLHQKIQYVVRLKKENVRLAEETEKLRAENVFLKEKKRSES
As to the kind of experiment: affinity purification with mass spectrometry; SILAC; anti-Flag M2 affinity gel pull-down from combined lysates of HEK293T and stable Flag-Kif15 HEK293T cells synchronized in mitosis; elution with Flag peptide; three independent experiments. To be noted: remark: other sources report otherwise.

B1: KBP-His (full-length His-tagged KBP) (natural protein, human, UniProt Q96EK5 1-621, looked up)
chain: MANVPWAEVCEKFQAALALSRVELHKNPEKEPYKSKYSARALLEEVKALLGPAPEDEDERPEAEDGPGAGDHALGLPAEVVEPEGPVAQRAVRLAVIEFHLGVNHIDTEELSAGEEHLVKCLRLLRRYRLSHDCISLCIQAQNNLGILWSEREEIETAQAYLESSEALYNQYMKEVGSPPLDPTERFLPEEEKLTEQERSKRFEKVYTHNLYYLAQVYQHLEMFEKAAHYCHSTLKRQLEHNAYHPIEWAINAATLSQFYINKLCFMEARHCLSAANVIFGQTGKISATEDTPEAEGEVPELYHQRKGEIARCWIKYCLTLMQNAQLSMQDNIGELDLDKQSELRALRKKELDEEESIRKKAVQFGTGELCDAISAVEEKVSYLRPLDFEEARELFLLGQHYVFEAKEFFQIDGYVTDHIEVVQDHSALFKVLAFFETDMERRCKMHKRRIAMLEPLTVDLNPQYYLLVNRQIQFEIAHAYYDMMDLKVAIADRLRDPDSHIVKKINNLNKSALKYYQLFLDSLRDPNKVFPEHIGEDVLRPAMLAKFRVARLYGKIITADPKKELENLATSLEHYKFIVDYCEKHPEAAQEIEVELELSKEMVSLLPTKMERFRTKMALT
notes: also called recombinant His-tagged KBP; source: E. coli BL21 (DE3), purified (Ni-NTA)
For the molecule B1, the binding result is “binds”.
